Values from PubChem BioAssay AID504808 (Drosophila RNAi Screening Center, 2011).
In all, the deposit lists about 21,000 reagents; shown is an unselected part of those that have a named target and a result. Over the whole deposit, 18 (0.084%) were called active. 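Raw counts without plate normalisation, one of two replicates; the ratio scores behind the calls were not deposited.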 Reagent sequences are not shown. Not stated in the record: the amount of reagent, the time to read-out.

Aim: 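Fly genes required to hold E2F transcription in check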 (primary screen)
System: Drosophila S2 cells
Reagent: long dsRNA against Drosophila genes
Measurement: 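Dual luciferase plate measurements; E2F-specific signal taken as firefly over Renilla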
Reading the numbers: E2F firefly: higher = more E2F reporter activity; Renilla normaliser: higher = more normaliser reporter signal
Hit rule: 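Called active if the normalised E2F reporter went up by over 50%; the cutoff is arbitrary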

What is on record for Pkg21D [DRSC00772]?
E2F firefly, rep 1: 79905; Renilla normaliser, rep 1: 3390; Outcome: inactive

For CG9795 [DRSC12336], how do the results read?
E2F firefly, rep 1: 83088; Renilla normaliser, rep 1: 3013; Outcome: inactive

How did the screen score CG14657 [DRSC12219]?
E2F firefly, rep 1: 1.29e5; Renilla normaliser, rep 1: 6445; Outcome: inactive

For CG14657 [DRSC12243], what was measured?
E2F firefly, rep 1: 83599; Renilla normaliser, rep 1: 3335; Outcome: inactive

Which result is listed for CG31075 [DRSC16016]?
E2F firefly, rep 1: 1.25e5; Renilla normaliser, rep 1: 6605; Outcome: inactive

For Cpes [DRSC04475], how do the results read?
E2F firefly, rep 1: 65909; Renilla normaliser, rep 1: 3552; Outcome: inactive

What did the screen give for CG10435 [DRSC14246]?
E2F firefly, rep 1: 68962; Renilla normaliser, rep 1: 3217; Outcome: inactive

How did the screen score mIF2 [DRSC14510]?
E2F firefly, rep 1: 1.04e5; Renilla normaliser, rep 1: 5555; Outcome: inactive

Which result is listed for Vrp1 [DRSC04148]?
E2F firefly, rep 1: 84847; Renilla normaliser, rep 1: 3586; Outcome: inactive

What did the screen give for CG9951 [DRSC11105]?
E2F firefly, rep 1: 77161; Renilla normaliser, rep 1: 3202; Outcome: inactive

For CG13731 [DRSC10059], how do the results read?
E2F firefly, rep 1: 1.57e5; Renilla normaliser, rep 1: 7079; Outcome: inactive

With CG18404 [DRSC15323], how do the results read?
E2F firefly, rep 1: 1.40e5; Renilla normaliser, rep 1: 6741; Outcome: inactive

What is on record for Adss [DRSC14162]?
E2F firefly, rep 1: 68645; Renilla normaliser, rep 1: 4141; Outcome: inactive

For CG13005 [DRSC19524], how do the results read?
E2F firefly, rep 1: 1.58e5; Renilla normaliser, rep 1: 6361; Outcome: inactive

What is on record for CG42264 [DRSC18074]?
E2F firefly, rep 1: 50054; Renilla normaliser, rep 1: 3789; Outcome: inactive

What did the screen give for CG42264 [DRSC18075]?
E2F firefly, rep 1: 59019; Renilla normaliser, rep 1: 3539; Outcome: inactive

How did the screen score Ski6 [DRSC02491]?
E2F firefly, rep 1: 1.10e5; Renilla normaliser, rep 1: 4056; Outcome: inactive

How did the screen score CG17027 [DRSC10238]?
E2F firefly, rep 1: 80276; Renilla normaliser, rep 1: 3928; Outcome: inactive

What did the screen give for CG7382 [DRSC03052]?
E2F firefly, rep 1: 82945; Renilla normaliser, rep 1: 3574; Outcome: inactive

An excerpt from above, showing only “E2F firefly, rep 1”.
CG14657 [DRSC12243]: 83599
CG31075 [DRSC16016]: 1.25e5
